{"source": "patent US12168003B2", "about": "“Selective inhibition of T follicular helper cells for treatment of autoimmune disorders” (priority 2019, dated 2024)", "tested_on": "CD4+ T cells", "assay": "Polysome profiling and RNA sequencing of CD4+ T cells from OVA/Alum immunized mice", "type": "in vivo, mouse", "key": {"[1]": {"details": "25 mg/kg 4EGI-1, OVA/alum, CD4+ T cells"}, "[2]": {"details": "compared with TFH cell transcriptome of Johnston et al."}}, "data": [{"smiles": "O=C(O)C(Cc1ccccc1[N+](=O)[O-])=NNc1nc(-c2ccc(Cl)c(Cl)c2)cs1", "note": "(mixture of isomers) [4EGI-1]", "values": [{"measurement": "share of mRNAs changed in abundance or translation in CD4+ T cells", "setting": "25 mg/kg 4EGI-1, OVA/alum", "value": "~4", "unit": "%"}, {"measurement": "mRNAs altered in both transcription and translation", "setting": "[1]", "value": 64, "unit": "mRNAs"}, {"measurement": "mRNAs altered in translation alone without a change in abundance", "setting": "[1]", "value": 667, "unit": "mRNAs"}, {"measurement": "mRNAs significantly altered in abundance and not translation activity (transcription alone)", "setting": "[1]", "value": 641, "unit": "mRNAs"}, {"measurement": "share of changed mRNAs reduced in abundance", "setting": "[1]", "value": 61, "unit": "%"}, {"measurement": "share of changed mRNAs reduced in translation", "setting": "[1]", "value": 79, "unit": "%"}, {"measurement": "TFH-enriched mRNAs (both datasets) downregulated by 4EGI-1, regulated in transcription alone", "setting": "[2]", "value": 18, "unit": "mRNAs"}, {"measurement": "TFH-enriched mRNAs downregulated by translation alone with eIF4E inhibition", "setting": "[2]", "value": 40, "unit": "mRNAs"}]}]}
